The supplement of paper PMC12067093, “Discovery and optimisation of a covalent ligand for TRIM25 and its application to targeted protein ubiquitination” (Chemical Science, 2025)
The other results are listed elsewhere or left out.

Compound: Cc1cc(ccc1-c1ccccc1)C(=O)N1CCCN(CC1)C(=O)CCl [compound 10]
Experiment: probe-labelled cysteine peptide fold change vs DMSO (competition) (log2 fold change); higher = less target engagement (more negative = stronger competition)
Conditions: THP-1, incubation time: 4 h
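Further: competitive profiling in live THP-1 cells: cysteine peptides tagged with an iodoacetamide desthiobiotin (IA-DTB) probe, intensity after compound treatment relative to DMSO-treated cells.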

Row | Target | probe-labelled cysteine peptide fold change (10 µM) | probe-labelled cysteine peptide fold change (50 µM)
1 | EIF4G1_Q04637_1516_YLCDEQK (UniProt Q04637) | -0.105 | 0.0982
2 | EIF4G3_O43432_1534_MFFDCLYDEEVISEDAFYK (UniProt O43432) | 0.149 | 0.165
3 | EIF3G_O75821_139_EDLNCQEEEDPMNK (UniProt O75821) | -0.351 | -0.173
4 | EML4_Q9HC35_82_AVIPMSCITNGSGANR (UniProt Q9HC35) | -0.0598 | -0.167
5 | EIF3I_Q13347_57_LGTYMGHTGAVWCVDADWDTK (UniProt Q13347) | 0.129 | 0.104
6 | EMC8_O43402_12_LTTQAYCK (UniProt O43402) | -0.0348 | -0.0715
7 | EMC8_O43402_153_CRDPHHDYCEDWPEAQR (UniProt O43402) | 0.269 | 0.392
8 | EPRS_P07814_350_IDMSSNNGCMR (UniProt P07814) | 0.136 | -0.176
9 | EIF3G_O75821_25_CVTSELLK (UniProt O75821) | -0.265 | -0.0476
10 | EML2_O95834_395_AQFVTCGQDK (UniProt O95834) | -0.0631 | -0.172
11 | EIF3I_Q13347_120_QMGYQCFVSFFDLR (UniProt Q13347) | 0.32 | 0.448
12 | EPRS_P07814_92_LSSCDSFTSTINELNHCLSLR (UniProt P07814) | -0.0495 | -0.175
13 | ELP2_Q6IA86_572_LYGHGYEIFCVTCNSSK (UniProt Q6IA86) | 0.0664 | 0.106
14 | EPM2A_B3EWF7_192_RRASRAFCPR (UniProt B3EWF7) | -0.189 | -0.0883
15 | ERAP1_Q9NZ08_743_SQLLLLACVHNYQPCVQR (UniProt Q9NZ08) | -0.249 | 0.425
16 | ELAC2_Q9BQ52_421_EGPTLSVPMVQGECLLK (UniProt Q9BQ52) | -0.18 | -0.12
17 | EPRS_P07814_1148_LNQWCNVVR (UniProt P07814) | 0.0104 | 0.0139
18 | ERCC4_Q92889_560_EPLTIIHPLLGCSDPYALTR (UniProt Q92889) | -0.615 | -0.524
19 | EIF3F_O00303_134_HSVEVTNCFSVPHNESEDEVAVDMEFAK (UniProt O00303) | -0.124 | 0.132
20 | EIF4A1_P60842_131+134_VVMALGDYMGASCHACIGGTNVR (UniProt P60842) | 0.402 | -0.161
21 | ELP1_O95163_820_IDLVCDAMR (UniProt O95163) | 0.102 | 0.301

Row | Target | probe-labelled cysteine peptide fold change (10 µM) | probe-labelled cysteine peptide fold change (50 µM)
22 | EIF4G2_P78344_282_MCSLMLSK (UniProt P78344) | 0.175 | -0.203
23 | ELMSAN1_Q6PJG2_502_CGVEFSEPSLATK (UniProt Q6PJG2) | -0.195 | -0.222
24 | ELAC1_Q9H777_266_LCFEADLLIHEATLDDAQMDK (UniProt Q9H777) | 0.0528 | -0.0432
25 | EPRS_P07814_623_VTWLAETTHALPIPVICVTYEHLITK (UniProt P07814) | 0.226 | 0.502
26 | ENG_P17813_549_TGTLSCTVALRPK (UniProt P17813) | -0.142 | -0.0378
27 | ERBIN_Q96RT1_464_AQVAFECDEDK (UniProt Q96RT1) | 0.0695 | 0.521
28 | EPHX2_P34913_154_MHFDFLIESCQVGMVKPEPQIYK (UniProt P34913) | -0.316 | -0.0625
29 | EMG1_Q92979_134_FCGLMVQLLHK (UniProt Q92979) | 0.0226 | 0.308
30 | EIF5_P55010_102_FVLCPECENPETDLHVNPK (UniProt P55010) | 0.0375 | 0.085
31 | EMC9_Q9Y3B6_177_AHQHLVDFDCHLDDIR (UniProt Q9Y3B6) | 0.0368 | 0.244
32 | EIF5_P55010_320_YLLHGLECVVAMHQAQLISK (UniProt P55010) | 0.219 | 0.119
33 | ELP2_Q6IA86_38_GLLAFGTSCSVVLYDPLK (UniProt Q6IA86) | -0.0438 | 0.156
34 | EIF3J_O75822_207_ITNSLTVLCSEK (UniProt O75822) | -0.295 | 0.0198
35 | EPHX1_P07099_182_NHGLSDEHVFEVICPSIPGYGFSEASSK (UniProt P07099) | 0.0663 | 0.112
36 | ELP5_Q8TE02_52+61_SALCGEQVHILGCEVSEEEFREGFDSDINNR (UniProt Q8TE02) | -0.438 | -0.112
37 | ELANE_P08246_55_GGHFCGATLIAPNFVMSAAHCVANVNVR (UniProt P08246) | -0.344 | 0.16
38 | ENG_P17813_582_LNIISPDLSGCTSK (UniProt P17813) | -0.384 | -0.275
39 | ENO1_P06733_339_SCNCLLLK (UniProt P06733) | 0.149 | 0.0192
40 | ENY2_Q9NPA8_40_LIECGWK (UniProt Q9NPA8) | 0.0115 | 0.0468
41 | EIPR1_Q53HC9_198_WSPHHNCTQVATANDTTLR (UniProt Q53HC9) | -0.11 | -0.389
42 | ELP2_Q6IA86_769_KTDQVPEINDWTHCVETSQSQSHTLAIR (UniProt Q6IA86) | -0.00759 | 0.172

Single records, from the list above. Order of values: probe-labelled cysteine peptide fold change (10 µM) | probe-labelled cysteine peptide fold change (50 µM)
EIF5_P55010_320_YLLHGLECVVAMHQAQLISK (UniProt P55010) is listed with 0.219 | 0.119
EIF3I_Q13347_57_LGTYMGHTGAVWCVDADWDTK (UniProt Q13347) is listed with 0.129 | 0.104
